Reference: PMC12092681
These are yes or no findings as the source states them, for the method shown. For some assays here: Binding seen in cells or lysates may run through a third protein. Some binding calls cover weakened binding; strength is not graded here. For some assays here: Where a sequence is shown, tags or fusion partners need not be part of it.

Chains of the proteins cited; added tags and fusions are not shown. Residues count along the entry.
UniProt Q04721, residues 26-2471: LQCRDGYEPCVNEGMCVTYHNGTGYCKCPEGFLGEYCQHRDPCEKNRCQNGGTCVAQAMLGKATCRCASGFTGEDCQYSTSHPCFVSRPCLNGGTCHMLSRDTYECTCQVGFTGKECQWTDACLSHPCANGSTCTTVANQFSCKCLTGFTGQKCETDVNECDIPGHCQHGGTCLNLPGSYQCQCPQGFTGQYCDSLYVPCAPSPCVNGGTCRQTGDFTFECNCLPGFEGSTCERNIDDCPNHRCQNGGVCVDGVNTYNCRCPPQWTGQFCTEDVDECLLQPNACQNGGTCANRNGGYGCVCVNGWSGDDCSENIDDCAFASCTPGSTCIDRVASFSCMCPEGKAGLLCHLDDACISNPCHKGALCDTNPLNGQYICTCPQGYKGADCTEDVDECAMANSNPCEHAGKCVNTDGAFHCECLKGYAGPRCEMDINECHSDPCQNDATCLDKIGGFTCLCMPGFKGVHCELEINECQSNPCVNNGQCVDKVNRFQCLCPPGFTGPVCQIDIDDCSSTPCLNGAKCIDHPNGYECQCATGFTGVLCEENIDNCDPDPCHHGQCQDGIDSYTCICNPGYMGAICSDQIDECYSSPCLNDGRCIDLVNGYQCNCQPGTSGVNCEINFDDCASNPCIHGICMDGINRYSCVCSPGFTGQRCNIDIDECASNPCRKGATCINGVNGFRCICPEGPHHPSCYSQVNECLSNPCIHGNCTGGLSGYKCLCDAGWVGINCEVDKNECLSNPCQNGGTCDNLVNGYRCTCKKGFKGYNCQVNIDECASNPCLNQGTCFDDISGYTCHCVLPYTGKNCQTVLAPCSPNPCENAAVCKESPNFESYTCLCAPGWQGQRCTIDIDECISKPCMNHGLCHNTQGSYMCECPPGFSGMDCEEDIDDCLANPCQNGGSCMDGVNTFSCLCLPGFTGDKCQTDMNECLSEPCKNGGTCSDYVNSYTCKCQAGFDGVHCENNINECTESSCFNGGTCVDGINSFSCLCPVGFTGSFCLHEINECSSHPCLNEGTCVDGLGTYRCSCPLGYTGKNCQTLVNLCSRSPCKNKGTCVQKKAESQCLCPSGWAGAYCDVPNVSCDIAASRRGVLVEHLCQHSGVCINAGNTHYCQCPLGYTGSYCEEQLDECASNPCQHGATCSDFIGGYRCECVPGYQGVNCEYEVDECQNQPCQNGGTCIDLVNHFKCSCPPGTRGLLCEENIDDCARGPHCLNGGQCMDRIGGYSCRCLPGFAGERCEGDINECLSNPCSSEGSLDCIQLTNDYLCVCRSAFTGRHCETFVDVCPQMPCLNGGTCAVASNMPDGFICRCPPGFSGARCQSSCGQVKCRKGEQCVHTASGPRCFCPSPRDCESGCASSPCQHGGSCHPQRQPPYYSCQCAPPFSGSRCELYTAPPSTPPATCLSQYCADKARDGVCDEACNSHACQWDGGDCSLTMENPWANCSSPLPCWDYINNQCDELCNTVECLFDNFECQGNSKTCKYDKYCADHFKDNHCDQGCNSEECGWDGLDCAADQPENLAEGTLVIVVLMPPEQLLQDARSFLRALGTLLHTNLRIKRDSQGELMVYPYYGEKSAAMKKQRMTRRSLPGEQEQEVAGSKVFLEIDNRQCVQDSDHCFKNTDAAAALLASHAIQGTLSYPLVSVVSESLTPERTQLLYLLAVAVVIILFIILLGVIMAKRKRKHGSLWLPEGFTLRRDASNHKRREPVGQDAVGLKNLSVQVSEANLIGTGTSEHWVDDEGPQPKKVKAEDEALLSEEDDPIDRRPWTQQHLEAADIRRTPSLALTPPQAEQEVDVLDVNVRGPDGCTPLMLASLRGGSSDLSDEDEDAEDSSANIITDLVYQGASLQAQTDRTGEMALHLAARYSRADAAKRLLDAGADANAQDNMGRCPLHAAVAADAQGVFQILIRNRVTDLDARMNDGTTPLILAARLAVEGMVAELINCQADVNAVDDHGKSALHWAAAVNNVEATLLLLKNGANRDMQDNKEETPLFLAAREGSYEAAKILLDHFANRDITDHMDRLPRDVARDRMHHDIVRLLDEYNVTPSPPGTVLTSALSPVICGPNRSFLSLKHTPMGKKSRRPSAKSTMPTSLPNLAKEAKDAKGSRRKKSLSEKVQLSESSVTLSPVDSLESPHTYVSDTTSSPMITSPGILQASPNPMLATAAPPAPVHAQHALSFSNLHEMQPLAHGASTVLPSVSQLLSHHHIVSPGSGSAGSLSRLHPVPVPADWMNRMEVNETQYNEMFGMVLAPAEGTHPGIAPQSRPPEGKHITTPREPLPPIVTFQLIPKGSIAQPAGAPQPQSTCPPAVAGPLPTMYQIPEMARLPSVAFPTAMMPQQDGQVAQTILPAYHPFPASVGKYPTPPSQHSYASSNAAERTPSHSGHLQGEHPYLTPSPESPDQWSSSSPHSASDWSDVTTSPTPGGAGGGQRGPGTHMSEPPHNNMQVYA
UniProt Q99873: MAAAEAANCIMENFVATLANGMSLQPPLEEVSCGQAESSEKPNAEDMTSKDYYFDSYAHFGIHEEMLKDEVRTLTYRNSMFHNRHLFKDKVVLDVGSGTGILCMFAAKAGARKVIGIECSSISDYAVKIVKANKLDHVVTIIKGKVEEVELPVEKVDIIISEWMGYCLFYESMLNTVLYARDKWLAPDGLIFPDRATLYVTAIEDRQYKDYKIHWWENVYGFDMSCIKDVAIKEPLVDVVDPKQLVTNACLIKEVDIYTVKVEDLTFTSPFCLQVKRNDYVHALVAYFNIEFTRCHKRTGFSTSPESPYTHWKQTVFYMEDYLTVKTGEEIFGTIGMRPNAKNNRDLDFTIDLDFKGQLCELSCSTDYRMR

Key:
[1] = target: T1, MYC-tagged NUSAP1 (nucleolar and spindle-associated protein 1), wild type, in HEK293FT cells (human) (UniProt Q9BXS6); assay: co-IP; HEK293FT cells expressing MYC-NUSAP1; MYC-tagged NUSAP1 immunoprecipitated, PRMT1 and PRMT5 detected by Western blotting
T1 sequence: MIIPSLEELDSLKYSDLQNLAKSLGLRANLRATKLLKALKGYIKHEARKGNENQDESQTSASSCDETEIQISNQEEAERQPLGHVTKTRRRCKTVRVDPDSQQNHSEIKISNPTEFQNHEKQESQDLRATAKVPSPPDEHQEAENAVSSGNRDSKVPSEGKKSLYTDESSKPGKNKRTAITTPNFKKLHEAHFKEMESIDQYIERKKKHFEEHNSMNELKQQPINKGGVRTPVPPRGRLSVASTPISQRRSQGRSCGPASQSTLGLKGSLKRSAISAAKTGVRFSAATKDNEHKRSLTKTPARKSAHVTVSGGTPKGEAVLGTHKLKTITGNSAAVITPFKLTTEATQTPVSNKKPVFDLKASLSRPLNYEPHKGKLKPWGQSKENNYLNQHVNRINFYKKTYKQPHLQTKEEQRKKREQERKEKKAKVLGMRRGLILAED

[2] = target: T2, MYC-tagged NUSAP1, wild type, in BGC-823-5-FU-R and SGC-7901-5-FU-R cells (human) (UniProt Q9BXS6); assay: proximity ligation; fixed and permeabilised BGC-823-5-FU-R and SGC-7901-5-FU-R cells on coverslips, PLA probes, confocal microscopy; signal in the cytoplasm
T2 sequence: T1 sequence

[3] = target: T2, MYC-tagged NUSAP1, wild type, in BGC-823-5-FU-R and SGC-7901-5-FU-R cells (human); assay: co-IP; BGC-823-5-FU-R and SGC-7901-5-FU-R cells overexpressing MYC-NUSAP1 (with Flag-tagged N2ICD fragments in Fig. 6G); precipitation with anti-MYC antibody, Western blotting
[4] = target: T3, GST-tagged NUSAP1 wild type (GST-NUSAP1-WT) (human) (UniProt Q9BXS6); assay: pull-down; GST-NUSAP1 on glutathione-Sepharose beads incubated with purified His-tagged prey at 4 °C for 4 h in 20 mM Tris-HCl pH 7.5, 150 mM NaCl, 0.5% Triton X-100; washed with 300 mM NaCl; blots with anti-GST and anti-His; both purified
T3 sequence: T1 sequence

[5] = target: T4, NUSAP1, endogenous in 5-FU-resistant gastric cancer cells (human (endogenous in BGC-823-5-FU-R and SGC-7901-5-FU-R)) (UniProt Q9BXS6); assay: proximity ligation; fixed and permeabilised BGC-823-5-FU-R and SGC-7901-5-FU-R cells on coverslips, PLA probes, confocal microscopy; signal in the cytoplasm
T4 sequence: T1 sequence

[6] = target: T4, NUSAP1, endogenous in 5-FU-resistant gastric cancer cells (human (endogenous in BGC-823-5-FU-R and SGC-7901-5-FU-R)); assay: co-IP; endogenous proteins in BGC-823-5-FU-R and SGC-7901-5-FU-R cells; precipitation with anti-NUSAP1, anti-PRMT1, anti-PRMT5 or anti-Notch2 antibody, Western blotting
[7] = target: Notch2, endogenous in 5-FU-resistant gastric cancer cells (human (endogenous in BGC-823-5-FU-R and SGC-7901-5-FU-R)) (UniProt Q04721); assay: as above
[8] = target: PRMT1, endogenous in 5-FU-resistant gastric cancer cells (human (endogenous in BGC-823-5-FU-R and SGC-7901-5-FU-R)) (UniProt Q99873); assay: as above

PRMT1, endogenous in HEK293FT cells (from UniProt Q99873 1-371) (enzyme)
binding [1]: binds

Notch2, endogenous in 5-FU-resistant gastric cancer cells (from UniProt Q04721 26-2471) (receptor)
binding [2]: binds
binding [3]: binds

His-tagged PRMT1 (from UniProt Q99873 1-371) (enzyme)
binding [4]: binds

PRMT1, endogenous in 5-FU-resistant gastric cancer cells (from UniProt Q99873 1-371) (enzyme)
binding [5]: binds
binding [6]: binds

B1: NUSAP1, endogenous in 5-FU-resistant gastric cancer cells (protein, UniProt Q9BXS6 1-441)
chain: T1 sequence
binding [7]: binds
binding [8]: binds
